Where a name gives a salt, the structure may show the parent alone.
Key:
S. aureus ATCC 6538 = assay: MIC against S. aureus ATCC 6538; assay type: cell-based; settings: Staphylococcus aureus, ATCC6538
Method: (§1) The microbiological activity of clindamycin analogs was evaluated by measuring the minimum inhibitory concentrations (MIC) of each compound against Staphylococcus aureus (S. aureus) and Propionibacterium acnes (P. acnes). These two microorganisms were selected, as they are commonly known to be the contributing factors for acne. The compounds evaluated were the following: • a. […] Clindamycin sulfone (CSO2) and its salts • d. Clindamycin phosphate • e.

[1] = Stability studies with benzoyl peroxide in buffer solutions; assay type: physicochemical; settings: 1% analog with 5% BPO, pH 3 buffer, 50° C.
Method: The concentrations of each of the clindamycin analogs and BPO in the mixtures were 1% (w/w) and 5% (w/w), respectively.
Samples were prepared by dissolving each of the clindamycin analogs and suspending the BPO powder in the buffer solutions of different pHs. Samples were placed either at RT or at 50° C. Samples were pulled at time intervals and tested for the appropriate clindamycin analog and pH.
The figures show the plots of the percent remaining (% of initial) of the clindamycin analog versus time. The percent of initial is obtained by normalizing the concentration at each time point to the initial concentration.

P. acnes ATCC 11827 = assay: MIC against P. acnes ATCC 11827; assay type: cell-based, Propionibacterium acnes; settings: Cutibacterium acnes, ATCC11827
Method: as §1

P. acnes ATCC 1127 = assay: MIC against P. acnes ATCC 1127; assay type: cell-based, Propionibacterium acnes; settings: Cutibacterium acnes, ATCC1127
Method: as §1

- MIC (S. aureus ATCC 6538): < 0.8 µg/mL
- loss of active in the sample ([1]; after 4 weeks of storage): 60%
- remained in the solution (% of initial) ([1]; after 8 weeks of storage): less than 10%
- MIC (P. acnes ATCC 11827): 0.062 µg/mL
- MIC (P. acnes ATCC 1127): < 0.8 µg/mL
Structure (SMILES): CCC[C@@H]1C[C@@H](C(=O)N[C@@H]([C@H]2O[C@H](SC)[C@H](O)[C@@H](O)[C@H]2O)[C@H](C)Cl)N(C)C1 [Clindamycin HCl, reference compound]
